Reference: patent US12252701B2, “Chimeric antigen receptor T cell therapy” (KITE PHARMA, INC., priority 2020, dated 2025)
Where two headings read alike, the source gives them in different places.

Test system: CD19 CAR T cells
Assay: CAR T cell cytokine production (Luminex) under CD19 K562, KIP-1 or CD2/3/28 stimulation
Details: Homo sapiens, 72 h

In the case of C[C@@H]1CCN(C(=O)CC#N)C[C@@H]1N(C)c1ncnc2[nH]ccc12 [tofacitinib], the IC50 (read-out: Suppression of cytokine production, GMCSF (IC50), CD3/CD28 stimulation, 72 h) is reported as < 100 nM, the IC50 (read-out: Suppression of cytokine production, GMCSF (IC50), K562-CD19 stimulation, 72 h) is reported as 2930 nM and the IC50 (read-out: Suppression of cytokine production, GMCSF (IC50), KIP-1 stimulation, 72 h) is reported as 1160 nM. For the same compound, the IC50 (read-out: Suppression of cytokine production, GzB (IC50), CD3/CD28 stimulation, 72 h) was 1700 nM, the IC50 (read-out: Suppression of cytokine production, IL-2Ra (IC50), CD3/CD28 stimulation, 72 h) was 222 nM and the IC50 (read-out: Suppression of cytokine production, IL-2Ra (IC50), K562-CD19 stimulation, 72 h) was 155 nM. For the same compound, the IC50 (read-out: Suppression of cytokine production, IL-6 (IC50), CD3/CD28 stimulation, 72 h) was < 100 nM, the IC50 (read-out: Suppression of cytokine production, IL-6 (IC50), KIP-1 stimulation, 72 h) was 2250 nM and the IC50 (read-out: Suppression of cytokine production, IL-8 (IC50), CD3/CD28 stimulation, 72 h) was < 100 nM. For the same compound, the IC50 (read-out: Suppression of cytokine production, IL-8 (IC50), K562-CD19 stimulation, 72 h) was 105 nM, the IC50 (read-out: Suppression of cytokine production, IL-8 (IC50), KIP-1 stimulation, 72 h) was 354 nM and the IC50 (read-out: Suppression of cytokine production, IL-10 (IC50), CD3/CD28 stimulation, 72 h) was < 100 nM. The IC50 (read-out: Suppression of cytokine production, IL-10 (IC50), K562-CD19 stimulation, 72 h) was 221 nM, the IC50 (read-out: Suppression of cytokine production, MCP-1 (IC50), CD3/CD28 stimulation, 72 h) was < 100 nM and the IC50 (read-out: Suppression of cytokine production, MCP-1 (IC50), KIP-1 stimulation, 72 h) was 2560 nM. The IC50 (read-out: Suppression of cytokine production, MIG (IC50), CD3/CD28 stimulation, 72 h) was 307 nM, the IC50 (read-out: Suppression of cytokine production, MIG (IC50), K562-CD19 stimulation, 72 h) was < 100 nM and the IC50 (read-out: Suppression of cytokine production, MIG (IC50), KIP-1 stimulation, 72 h) was < 100 nM. It also gave an IC50 (read-out: Suppression of cytokine production, MIP-1b (IC50), CD3/CD28 stimulation, 72 h) of 101 nM, an IC50 (read-out: Suppression of cytokine production, Perforin (IC50), K562-CD19 stimulation, 72 h) of 460 nM and an IC50 (read-out: Suppression of cytokine production, Perforin (IC50), KIP-1 stimulation, 72 h) of 1090 nM. The IC50 (read-out: Suppression of cytokine production, TNFa (IC50), CD3/CD28 stimulation, 72 h) was < 100 nM, the IC50 (read-out: Suppression of cytokine production, TNFa (IC50), K562-CD19 stimulation, 72 h) was 371 nM and the IC50 (read-out: Suppression of cytokine production, TNFa (IC50), KIP-1 stimulation, 72 h) was 652 nM.
